PubChem BioAssay AID1671195, Yale University – 2021
The whole screen tested about 22,000 reagents; shown is an unselected part. About 1,510 of all reagents (6.9%) count as active. 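Active includes knockdowns raising or lowering LDL uptake; positive z-scores mean more uptake, negative mean less.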 Unmarked entries are inactive.

Aim: 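Knockdowns that increase or decrease uptake of fluorescent LDL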 (primary screen)
Cells: human Huh7 hepatoma cells
Reagents: siRNA pool against human genes, 18 nM
Timing: about 2 to 2.5 days of knockdown, then 8 h LDL uptake
Treatment: DiI-labelled LDL at 30 µg/ml for 8 h, in lipoprotein-deficient serum medium
Measured: 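Fluorescent LDL signal imaged in cells, scaled to the plate median, robust z-score for each replicate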
Reading the numbers: robust z-score: higher = more LDL uptake after knockdown
Call rule: 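a gene counts as active if at least two replicate z-scores exceed ±2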

gene,"robust z-score, replicate 1","robust z-score, replicate 2","robust z-score, replicate 3"
DRC8 (dynein regulatory complex subunit 8),0.131,-0.243,0.054
KCNB1 (potassium voltage-gated channel subfamily B member 1),-0.019,0.149,-0.163
P2RX7 (purinergic receptor P2X 7),0.738,0.469,0.512
TMBIM4 (transmembrane BAX inhibitor motif containing 4),-1.73,-1.36,-0.874
VPS51P8 (VPS51 pseudogene 8),-1.13,-1.31,-1.14
IRGQ (immunity related GTPase Q),0.165,-0.549,-0.333
ELAVL1 (ELAV like RNA binding protein 1),2.85 (active),2.89,2.43
FBXO39 (F-box protein 39),1.08,3.08,1.45
LINC03042 (long independently transcribed non-coding RNA 3042),0.535,0.856,1.04
CCDC86 (coiled-coil domain containing 86),0.3,-0.249,1.41
DEFB108B (defensin beta 108B),1.81,1.56,1.7
TAFA1 (TAFA chemokine like family member 1),1.62 (active),2.16,2.18
RNF34 (ring finger protein 34),0.599,-0.0505,0.716
MOGAT1 (monoacylglycerol O-acyltransferase 1),-0.0301,-0.331,-0.471
C20orf66,-1.05,-1.34,-1.19
CRHBP (corticotropin releasing hormone binding protein),1.35,1.23,2.57
EPS15 (epidermal growth factor receptor pathway substrate 15),-0.398,-0.421,-0.309
OR6X1 (olfactory receptor family 6 subfamily X member 1),0.227,0.327,0.206
KANSL3 (KAT8 regulatory NSL complex subunit 3),-0.756,-1.05,-0.947
MTNR1A (melatonin receptor 1A),-1.35,-1.16,-1.1
IL25 (interleukin 25),1.95,2.22,1.84
NUP37 (nucleoporin 37),0.668,-0.042,1.22
ADAMTS13 (ADAM metallopeptidase with thrombospondin type 1 motif 13),-0.563,-0.755,-0.0358
PIGN (phosphatidylinositol glycan anchor biosynthesis class N),0.806,0.346,0.858
SNRNP40 (small nuclear ribonucleoprotein U5 subunit 40),-0.71,-0.577,-0.931
OVGP1 (oviductal glycoprotein 1),-0.147,0.00382,0.328
MRPL37 (mitochondrial ribosomal protein L37),-1.64,-1.23,-3.1

9 of these entries in another layout:
| gene | robust z-score, replicate 1 | robust z-score, replicate 2 | robust z-score, replicate 3 |
| --- | --- | --- | --- |
| IRGQ (immunity related GTPase Q) | 0.165 | -0.549 | -0.333 |
| ELAVL1 (ELAV like RNA binding protein 1) | 2.85 (active) | 2.89 | 2.43 |
| FBXO39 (F-box protein 39) | 1.08 | 3.08 | 1.45 |
| LINC03042 (long independently transcribed non-coding RNA 3042) | 0.535 | 0.856 | 1.04 |
| CCDC86 (coiled-coil domain containing 86) | 0.3 | -0.249 | 1.41 |
| DEFB108B (defensin beta 108B) | 1.81 | 1.56 | 1.7 |
| TAFA1 (TAFA chemokine like family member 1) | 1.62 (active) | 2.16 | 2.18 |
| RNF34 (ring finger protein 34) | 0.599 | -0.0505 | 0.716 |
| MOGAT1 (monoacylglycerol O-acyltransferase 1) | -0.0301 | -0.331 | -0.471 |

The list goes on.
gene,"robust z-score, replicate 1","robust z-score, replicate 2","robust z-score, replicate 3"
LRTM1 (leucine rich repeat transmembrane protein 1),-1.44,-1.13,-0.86
STIM1 (stromal interaction molecule 1),-0.174,0.715,1.61
YIPF6 (Yip1 domain family member 6),0.337,0.409,0.564
CYP2B6 (cytochrome P450 family 2 subfamily B member 6),1.55,1.36,1.26
FER (FER tyrosine kinase),2.38,0.957,1.01
PNMA5 (PNMA family member 5),0.311,-1.67,-0.868
LOC389250 (retired record),-0.342,-0.0802,-0.338
LOC391609 (retired record),1.47,1.4,1.36
SNRNP27 (small nuclear ribonucleoprotein U4/U6.U5 subunit 27),-0.94,-0.11,-0.101
PSME3 (proteasome activator subunit 3),0.489,-0.356,-0.145
TPM1 (tropomyosin 1),0.558,-1.06,1.42
FKBP7 (FKBP prolyl isomerase 7),3.28 (active),3.48,2.74
LOC730011,-1.35,-1.05,-0.926
SMIM20 (small integral membrane protein 20),2.83 (active),2.17,2.52
EPHA10 (EPH receptor A10),-0.414,0.155,-0.597
MLF1 (myeloid leukemia factor 1),1.51,-0.636,-0.0528
PRR4 (proline rich 4),-0.899,0.403,-1.12
LOC440105 (retired record),-0.527,-0.17,0.0386
LOC389341 (retired record),-0.862,-0.187,-0.325
PSMA2 (proteasome 20S subunit alpha 2),1.5,1.55,2.45
YEATS4 (YEATS domain containing 4),-0.797,-0.785,-0.726
CLEC12B (C-type lectin domain family 12 member B),1.09,1.26,1.5
PHF24 (PHD finger protein 24),-1.46,0.918,-2.13
TMEM207 (transmembrane protein 207),1.17,1.47,1.32
"ZYG11A (zyg-11 family member A, cell cycle regulator)",1.04,1.26,0.695
TAGAP (T cell activation RhoGTPase activating protein),-0.807,-0.263,-0.51
FAM99A (family with sequence similarity 99 member A),-0.368,-0.422,-0.49
NAT2 (N-acetyltransferase 2),-0.548,-0.718,-0.108
GSTA3 (glutathione S-transferase alpha 3),1.52 (active),4.18,2.29
PDE9A (phosphodiesterase 9A),-0.854,-0.989,-1.06
H2BW2 (H2B.W histone 2),-1.45,-1.36,-1.24
LOC440975 (retired record),1.12,1.31,1.14
RDX (radixin),-0.681,0.572,-0.114
ZNF449 (zinc finger protein 449),-0.549,-0.0706,0.151
ADGRL4 (adhesion G protein-coupled receptor L4),-0.721,-0.593,0.268
TMEM201 (transmembrane protein 201),-0.197,0.21,0.51
MRPS11 (mitochondrial ribosomal protein S11),-1.54,-1.83,-1.68
ZNF80 (zinc finger protein 80),-0.619,-1.04,-0.664
RRAGA (Ras related GTP binding A),1.77,-0.505,0.805
ESCO1,0.935,-2.37,0.0123
UBIAD1 (UbiA prenyltransferase domain containing 1),-1,-0.335,-2.79
